Laboratory results published in article PMC5593696.
Results are given in words; binding and its absence hold for the method and conditions named. Binding seen in cells or lysates may run through a third protein. Some entries that bind do so weakly or less than the wild type.

By UniProt entry, the sequences of proteins in these tests, tags left out.
UniProt P10275: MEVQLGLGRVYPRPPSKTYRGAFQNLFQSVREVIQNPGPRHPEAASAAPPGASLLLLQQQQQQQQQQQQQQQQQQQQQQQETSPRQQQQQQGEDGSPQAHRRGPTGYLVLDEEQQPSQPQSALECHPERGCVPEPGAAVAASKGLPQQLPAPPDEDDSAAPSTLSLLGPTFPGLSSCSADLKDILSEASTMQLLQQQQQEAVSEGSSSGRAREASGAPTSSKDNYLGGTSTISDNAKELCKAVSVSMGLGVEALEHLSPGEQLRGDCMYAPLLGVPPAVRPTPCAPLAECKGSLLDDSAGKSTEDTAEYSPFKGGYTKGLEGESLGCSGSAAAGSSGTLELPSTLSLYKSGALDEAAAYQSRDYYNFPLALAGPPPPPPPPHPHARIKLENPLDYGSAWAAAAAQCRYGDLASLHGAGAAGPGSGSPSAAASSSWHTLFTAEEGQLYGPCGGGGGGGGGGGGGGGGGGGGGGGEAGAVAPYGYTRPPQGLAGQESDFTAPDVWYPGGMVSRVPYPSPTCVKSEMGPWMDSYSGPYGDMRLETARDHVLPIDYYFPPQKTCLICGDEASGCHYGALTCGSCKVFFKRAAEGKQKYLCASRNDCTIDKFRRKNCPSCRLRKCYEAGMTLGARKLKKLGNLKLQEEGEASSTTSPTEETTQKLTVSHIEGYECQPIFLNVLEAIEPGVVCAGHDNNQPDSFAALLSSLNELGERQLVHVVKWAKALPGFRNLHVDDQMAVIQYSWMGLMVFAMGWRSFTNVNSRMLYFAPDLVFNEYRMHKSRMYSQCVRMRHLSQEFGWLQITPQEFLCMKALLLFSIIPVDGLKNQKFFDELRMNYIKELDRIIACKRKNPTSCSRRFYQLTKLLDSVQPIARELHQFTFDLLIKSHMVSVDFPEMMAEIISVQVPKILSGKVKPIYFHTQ

Target: androgen receptor (human (endogenous in T-47D and MFM-223)) (UniProt P10275)
Test: co-IP; IP of endogenous AR with rabbit polyclonal AR antibody from T-47D and MFM-223 lysates; non-denaturing lysis buffer (20 mM Tris HCl pH 8, 137 nM NaCl, 10% glycerol, 1% NP-40, 2 mM EDTA), overnight at 4°C, Protein A-Sepharose beads; immunoblot for C1orf64 and AR; control non-specific rabbit …; three replicates

B1: C1orf64 (protein, UniProt Q8NEQ6 1-169)
chain: MAPSEDPRDWRANLKGTIRETGLETSSGGKLAGHQKTVPTAHLTFVIDCTHGKQLSLAATASPPQAPSPNRGLVTPPMKTYIVFCGENWPHLTRVTPMGGGCLAQARATLPLCRGSVASASFPVSPLCPQEVPEAKGKPVKAAPVRSSTWGTVKDSLKALSSCVCGQAD
binding: binds
